Results deposited as PubChem BioAssay AID1259405 (NCATS, 2018).
This is a random part of about 50,000 reagents tested. About 4,000 of them (8%) were called active. 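Mouse siRNA library applied to hamster cells; one well for each siRNA.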 The numbers tell different reagents against one gene apart. Reagent sequences are not shown.

Aim: 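Mouse-designed siRNAs used to find CHO productivity engineering targets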 (primary screen)
Cell system: Chinese hamster CHO-K1 ovary cells with stable secreted eGFP expression
Knock-down reagent: single siRNA against mouse genes, 0.8 pmol siRNA per well (2 µl of 400 nM stock)
Duration: 3 days
Measurement: 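Per-well intracellular GFP measured by laser scanning cytometry, plus viability from ATP luminescence, each relative to plate median of non-targeting control wells, in %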
Scale: GFP, % of control: higher = more GFP per well, higher productivity; viability (ATP), % of control: higher = more viable cells (more ATP)
Call rule: 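Called active when intracellular GFP, relative to negative control, is at or above 120%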

Or4c12b (olfactory receptor family 4 subfamily C member 12B) #1
- GFP, % of control: 61.5
- viability (ATP), % of control: 52
- Call: inactive

Or4c12b (olfactory receptor family 4 subfamily C member 12B) #2
- GFP, % of control: 62.9
- viability (ATP), % of control: 42.5
- Call: inactive

Or4c12b (olfactory receptor family 4 subfamily C member 12B) #3
- GFP, % of control: 59.3
- viability (ATP), % of control: 95.8
- Call: inactive

Creg2 (cellular repressor of E1A-stimulated genes 2) #1
- GFP, % of control: 81.1
- viability (ATP), % of control: 92.2
- Call: inactive

Creg2 (cellular repressor of E1A-stimulated genes 2) #2
- GFP, % of control: 67.7
- viability (ATP), % of control: 61.7
- Call: inactive

Creg2 (cellular repressor of E1A-stimulated genes 2) #3
- GFP, % of control: 97.2
- viability (ATP), % of control: 88
- Call: inactive

Iqub (IQ motif and ubiquitin domain containing) #1
- GFP, % of control: 40.1
- viability (ATP), % of control: 72.5
- Call: inactive

Iqub (IQ motif and ubiquitin domain containing) #2
- GFP, % of control: 90
- viability (ATP), % of control: 59.9
- Call: inactive

Iqub (IQ motif and ubiquitin domain containing) #3
- GFP, % of control: 81.3
- viability (ATP), % of control: 86.5
- Call: inactive

Trim46 (tripartite motif-containing 46) #1
- GFP, % of control: 114
- viability (ATP), % of control: 56.6
- Call: inactive

Trim46 (tripartite motif-containing 46) #2
- GFP, % of control: 124
- viability (ATP), % of control: 111
- Call: active

Trim46 (tripartite motif-containing 46) #3
- GFP, % of control: 69.1
- viability (ATP), % of control: 126
- Call: inactive

Pcyox1l (prenylcysteine oxidase 1 like) #1
- GFP, % of control: 66.8
- viability (ATP), % of control: 90.7
- Call: inactive

Pcyox1l (prenylcysteine oxidase 1 like) #2
- GFP, % of control: 75.2
- viability (ATP), % of control: 60.1
- Call: inactive

Pcyox1l (prenylcysteine oxidase 1 like) #3
- GFP, % of control: 105
- viability (ATP), % of control: 132
- Call: inactive

Nnmt (nicotinamide N-methyltransferase) #1
- GFP, % of control: 80.8
- viability (ATP), % of control: 95
- Call: inactive

Nnmt (nicotinamide N-methyltransferase) #2
- GFP, % of control: 110
- viability (ATP), % of control: 114
- Call: inactive

Nnmt (nicotinamide N-methyltransferase) #3
- GFP, % of control: 83.6
- viability (ATP), % of control: 114
- Call: inactive

Ppp1r1b (protein phosphatase 1, regulatory inhibitor subunit 1B) #1
- GFP, % of control: 45.6
- viability (ATP), % of control: 32.4
- Call: inactive

Ppp1r1b (protein phosphatase 1, regulatory inhibitor subunit 1B) #2
- GFP, % of control: 107
- viability (ATP), % of control: 98.7
- Call: inactive

Ppp1r1b (protein phosphatase 1, regulatory inhibitor subunit 1B) #3
- GFP, % of control: 84.7
- viability (ATP), % of control: 68.6
- Call: inactive

Or10g9b (olfactory receptor family 10 subfamily G member 9B) #1
- GFP, % of control: 67.7
- viability (ATP), % of control: 64.2
- Call: inactive

Or10g9b (olfactory receptor family 10 subfamily G member 9B) #2
- GFP, % of control: 107
- viability (ATP), % of control: 96.1
- Call: inactive

Or10g9b (olfactory receptor family 10 subfamily G member 9B) #3
- GFP, % of control: 57
- viability (ATP), % of control: 67.4
- Call: inactive

Art5 (ADP-ribosyltransferase 5) #1
- GFP, % of control: 99.9
- viability (ATP), % of control: 70.8
- Call: inactive

Art5 (ADP-ribosyltransferase 5) #2
- GFP, % of control: 86.5
- viability (ATP), % of control: 154
- Call: inactive

Art5 (ADP-ribosyltransferase 5) #3
- GFP, % of control: 98.4
- viability (ATP), % of control: 83.3
- Call: inactive

Kndc1 (kinase non-catalytic C-lobe domain (KIND) containing 1) #1
- GFP, % of control: 37.7
- viability (ATP), % of control: 21.6
- Call: inactive

Kndc1 (kinase non-catalytic C-lobe domain (KIND) containing 1) #2
- GFP, % of control: 81.8
- viability (ATP), % of control: 70.7
- Call: inactive

Kndc1 (kinase non-catalytic C-lobe domain (KIND) containing 1) #3
- GFP, % of control: 110
- viability (ATP), % of control: 76.9
- Call: inactive

Prdm5 (PR domain containing 5) #1
- GFP, % of control: 129
- viability (ATP), % of control: 91.1
- Call: active

Prdm5 (PR domain containing 5) #2
- GFP, % of control: 88.5
- viability (ATP), % of control: 96.5
- Call: inactive

Prdm5 (PR domain containing 5) #3
- GFP, % of control: 87.7
- viability (ATP), % of control: 122
- Call: inactive

Chkb (choline kinase beta)
- GFP, % of control: 89.3
- viability (ATP), % of control: 53.7
- Call: inactive

Nlrp2 (NLR family, pyrin domain containing 2) #1
- GFP, % of control: 66.2
- viability (ATP), % of control: 52.4
- Call: inactive

Nlrp2 (NLR family, pyrin domain containing 2) #2
- GFP, % of control: 54.8
- viability (ATP), % of control: 79.1
- Call: inactive

Nlrp2 (NLR family, pyrin domain containing 2) #3
- GFP, % of control: 88.6
- viability (ATP), % of control: 48
- Call: inactive

Vrk2 (vaccinia related kinase 2) #1
- GFP, % of control: 70.8
- viability (ATP), % of control: 63.1
- Call: inactive

Vrk2 (vaccinia related kinase 2) #2
- GFP, % of control: 99.2
- viability (ATP), % of control: 86.1
- Call: inactive

Vrk2 (vaccinia related kinase 2) #3
- GFP, % of control: 71.1
- viability (ATP), % of control: 73.7
- Call: inactive

Dnajc5g (DnaJ heat shock protein family (Hsp40) member C5 gamma) #1
- GFP, % of control: 70.1
- viability (ATP), % of control: 86.8
- Call: inactive

Dnajc5g (DnaJ heat shock protein family (Hsp40) member C5 gamma) #2
- GFP, % of control: 14.9
- viability (ATP), % of control: 44.2
- Call: inactive

Dnajc5g (DnaJ heat shock protein family (Hsp40) member C5 gamma) #3
- GFP, % of control: 81.9
- viability (ATP), % of control: 108
- Call: inactive

Mcrs1 (microspherule protein 1) #1
- GFP, % of control: 43
- viability (ATP), % of control: 85.3
- Call: inactive

Mcrs1 (microspherule protein 1) #2
- GFP, % of control: 40.7
- viability (ATP), % of control: 90
- Call: inactive

Mcrs1 (microspherule protein 1) #3
- GFP, % of control: 99.5
- viability (ATP), % of control: 70.6
- Call: inactive

Ssr4 (signal sequence receptor, delta) #1
- GFP, % of control: 58.2
- viability (ATP), % of control: 60.2
- Call: inactive

Ssr4 (signal sequence receptor, delta) #2
- GFP, % of control: 87.3
- viability (ATP), % of control: 102
- Call: inactive

Ssr4 (signal sequence receptor, delta) #3
- GFP, % of control: 62.1
- viability (ATP), % of control: 80.8
- Call: inactive

Nap1l4 (nucleosome assembly protein 1-like 4) #1
- GFP, % of control: 79.1
- viability (ATP), % of control: 78.7
- Call: inactive

Nap1l4 (nucleosome assembly protein 1-like 4) #2
- GFP, % of control: 111
- viability (ATP), % of control: 66.8
- Call: inactive

Nap1l4 (nucleosome assembly protein 1-like 4) #3
- GFP, % of control: 89
- viability (ATP), % of control: 83.8
- Call: inactive

Ordered by “GFP, % of control” (highest first): 8 of the entries above.
Prdm5 (PR domain containing 5) #1
- GFP, % of control: 129
- viability (ATP), % of control: 91.1
- Call: active

Kndc1 (kinase non-catalytic C-lobe domain (KIND) containing 1) #3
- GFP, % of control: 110
- viability (ATP), % of control: 76.9
- Call: inactive

Chkb (choline kinase beta)
- GFP, % of control: 89.3
- viability (ATP), % of control: 53.7
- Call: inactive

Prdm5 (PR domain containing 5) #2
- GFP, % of control: 88.5
- viability (ATP), % of control: 96.5
- Call: inactive

Prdm5 (PR domain containing 5) #3
- GFP, % of control: 87.7
- viability (ATP), % of control: 122
- Call: inactive

Kndc1 (kinase non-catalytic C-lobe domain (KIND) containing 1) #2
- GFP, % of control: 81.8
- viability (ATP), % of control: 70.7
- Call: inactive

Nlrp2 (NLR family, pyrin domain containing 2) #1
- GFP, % of control: 66.2
- viability (ATP), % of control: 52.4
- Call: inactive

Nlrp2 (NLR family, pyrin domain containing 2) #2
- GFP, % of control: 54.8
- viability (ATP), % of control: 79.1
- Call: inactive
